Holding throughout (assay): co-IP
Experiment [1] addresses GFP-CbpCT4 (Streptococcus pneumoniae TIGR4).
The target of experiment [2] is 6Myc-Atg14 (human) (UniProt Q6ZNE5).
The target in experiment [3] is HA-Atg14 (expressed in 293T cells) (human) (UniProt Q6ZNE5).

The chains behind the UniProt entries cited, without tags or fusion partners.
UniProt Q6ZNE5: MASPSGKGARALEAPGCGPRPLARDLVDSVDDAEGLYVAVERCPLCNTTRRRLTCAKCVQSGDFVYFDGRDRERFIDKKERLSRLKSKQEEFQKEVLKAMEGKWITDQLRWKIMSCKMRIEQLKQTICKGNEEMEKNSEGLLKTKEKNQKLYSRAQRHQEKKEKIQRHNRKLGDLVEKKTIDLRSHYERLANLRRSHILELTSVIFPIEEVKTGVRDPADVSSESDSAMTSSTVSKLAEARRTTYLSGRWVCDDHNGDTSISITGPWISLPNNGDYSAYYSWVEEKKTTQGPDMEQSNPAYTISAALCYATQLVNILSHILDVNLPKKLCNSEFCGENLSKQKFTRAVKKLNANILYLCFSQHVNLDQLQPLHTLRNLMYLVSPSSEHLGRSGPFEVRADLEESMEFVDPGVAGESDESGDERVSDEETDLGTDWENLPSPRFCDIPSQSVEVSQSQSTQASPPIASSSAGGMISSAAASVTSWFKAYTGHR
UniProt Q9Y4K3: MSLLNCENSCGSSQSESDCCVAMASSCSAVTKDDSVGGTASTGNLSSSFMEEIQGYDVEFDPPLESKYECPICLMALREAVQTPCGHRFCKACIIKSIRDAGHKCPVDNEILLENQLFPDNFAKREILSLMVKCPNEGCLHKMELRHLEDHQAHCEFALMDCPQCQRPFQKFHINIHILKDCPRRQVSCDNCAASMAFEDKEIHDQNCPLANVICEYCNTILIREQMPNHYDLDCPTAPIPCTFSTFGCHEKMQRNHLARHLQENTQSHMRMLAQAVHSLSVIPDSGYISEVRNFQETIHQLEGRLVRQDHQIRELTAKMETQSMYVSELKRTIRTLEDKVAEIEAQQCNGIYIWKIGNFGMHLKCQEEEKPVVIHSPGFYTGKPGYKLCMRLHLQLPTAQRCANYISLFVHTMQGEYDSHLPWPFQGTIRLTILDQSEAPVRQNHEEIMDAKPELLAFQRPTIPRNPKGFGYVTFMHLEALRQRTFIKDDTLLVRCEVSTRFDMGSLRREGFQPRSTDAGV

No constants are given. Whether binding was seen depends on the method and setting. In cells and extracts the contact can be indirect. A result given as binding can be weak or reduced; the word gives no strength.

These results are taken from PMC7202210.

In the case of “3Myc-Atg14 (expressed in 293T cells) (from UniProt Q6ZNE5 1-492)”, the binding entry in experiment [1] is recorded as “binds”. Still for that read-out and setting: the result for FLAG-TRAF6 (from UniProt Q9Y4K3 1-522) reads “no binding”.

Take GFP-CbpCT4 (from UniProt A0A0H2UNN3): the binding result in experiment [2] and in experiment [3] was “binds” throughout.

In the case of “HA-Atg14 (expressed in 293T cells) (from UniProt Q6ZNE5 1-492)”, the binding entry in experiment [1] is reported as “binds”. Regarding p62-3Myc (from UniProt Q13501 1-440), the binding result in experiment [1] is recorded as “binds”.
